Measurements taken from paper PMC4685450, “Crystal Structure of Human SSRP1 Middle Domain Reveals a Role in DNA Binding”.
Results are given in words; binding and its absence hold for the method and conditions named.

Chains of the proteins cited; added tags and fusions are not shown. Residues count along the entry.
UniProt Q08945, residues 196-430: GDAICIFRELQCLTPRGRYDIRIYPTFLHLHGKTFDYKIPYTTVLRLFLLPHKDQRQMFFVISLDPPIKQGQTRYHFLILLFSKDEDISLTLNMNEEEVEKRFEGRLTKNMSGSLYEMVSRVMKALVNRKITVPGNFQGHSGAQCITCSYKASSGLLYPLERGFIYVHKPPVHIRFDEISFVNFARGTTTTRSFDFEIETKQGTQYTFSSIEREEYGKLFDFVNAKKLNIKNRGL

Molecular target: His-tagged middle domain of SSRP1 (SSRP1-M, residues 196-430) (human) (UniProt Q08945)
Experiment: SEC; gel filtration of the purification (HiLoad 16/60 Superdex 200 or Superdex 75 pg), 20 mM Tris-HCl, 200 mM NaCl, pH 7.0; both purified

binding: no binding
Substance: His-tagged middle domain of SSRP1 (SSRP1-M, residues 196-430) (from UniProt Q08945 196-430) (domain or fragment)
